# Measurements from the M2OR odorant receptor database.
# Chains of the proteins cited; added tags and fusions are not shown. Chains listed by the source or under a name are the forms on record and can include a tag or linker.
# OR8B4, as listed by the source: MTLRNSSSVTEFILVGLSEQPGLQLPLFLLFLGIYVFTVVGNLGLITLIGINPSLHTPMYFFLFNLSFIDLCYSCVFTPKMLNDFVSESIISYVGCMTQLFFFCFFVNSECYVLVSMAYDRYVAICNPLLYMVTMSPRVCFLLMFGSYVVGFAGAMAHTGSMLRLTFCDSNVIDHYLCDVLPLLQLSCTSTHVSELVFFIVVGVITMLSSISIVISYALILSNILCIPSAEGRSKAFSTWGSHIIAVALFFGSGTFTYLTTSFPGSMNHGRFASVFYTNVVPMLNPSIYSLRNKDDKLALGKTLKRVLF
# OR8B3, as listed by the source: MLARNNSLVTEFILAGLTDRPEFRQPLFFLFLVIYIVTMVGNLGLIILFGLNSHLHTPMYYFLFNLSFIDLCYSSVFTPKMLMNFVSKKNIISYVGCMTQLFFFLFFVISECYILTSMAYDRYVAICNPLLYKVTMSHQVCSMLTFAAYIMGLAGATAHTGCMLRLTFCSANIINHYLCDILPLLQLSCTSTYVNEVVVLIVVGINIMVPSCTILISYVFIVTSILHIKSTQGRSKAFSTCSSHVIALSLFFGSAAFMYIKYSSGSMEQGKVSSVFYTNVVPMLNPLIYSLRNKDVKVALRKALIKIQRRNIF
# Changes are numbered by the printed parent chain. The list shows a part of the results, in another mix than the full data. The calls were merged from several studies; some rest on single wells. The list shows a part of the results.
# Columns and labels:
# Conditions in all cases: stereoisomer not certain
# [1] = system: T1, OR8A1
# T1 sequence (whole entry): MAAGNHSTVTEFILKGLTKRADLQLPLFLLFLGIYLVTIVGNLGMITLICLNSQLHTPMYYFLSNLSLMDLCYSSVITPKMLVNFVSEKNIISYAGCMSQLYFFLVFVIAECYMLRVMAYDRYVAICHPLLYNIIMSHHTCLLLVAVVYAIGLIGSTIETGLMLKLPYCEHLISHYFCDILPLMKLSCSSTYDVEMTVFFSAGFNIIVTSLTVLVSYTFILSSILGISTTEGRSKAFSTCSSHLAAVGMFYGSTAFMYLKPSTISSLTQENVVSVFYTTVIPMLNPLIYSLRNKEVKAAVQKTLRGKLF
# Method in brief: (§1)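 Whether a receptor–molecule pair is responsive (active) rests on the original authors' judgment that its measured signal was statistically different from baseline. Pairs without that judgment are non-responsive (inactive). Sources used varied assay methods, commonly transient luciferase assays in mammalian cell lines.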
# [2] = target: T2, OR8B12 (Homo sapiens) (UniProt Q8NGG6)
# T2 sequence (whole entry): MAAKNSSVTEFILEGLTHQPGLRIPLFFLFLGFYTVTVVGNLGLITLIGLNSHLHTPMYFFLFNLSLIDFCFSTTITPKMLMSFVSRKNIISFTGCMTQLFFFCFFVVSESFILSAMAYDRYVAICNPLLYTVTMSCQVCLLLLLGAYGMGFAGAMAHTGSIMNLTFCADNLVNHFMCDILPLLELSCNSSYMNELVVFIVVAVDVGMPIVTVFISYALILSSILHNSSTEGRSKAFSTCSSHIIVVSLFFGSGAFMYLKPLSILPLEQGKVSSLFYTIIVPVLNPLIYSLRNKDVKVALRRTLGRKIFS
# Method in brief: as §1
# [3] = target: T3, OR8B2 (Homo sapiens) (UniProt Q96RD0)
# T3 sequence (whole entry): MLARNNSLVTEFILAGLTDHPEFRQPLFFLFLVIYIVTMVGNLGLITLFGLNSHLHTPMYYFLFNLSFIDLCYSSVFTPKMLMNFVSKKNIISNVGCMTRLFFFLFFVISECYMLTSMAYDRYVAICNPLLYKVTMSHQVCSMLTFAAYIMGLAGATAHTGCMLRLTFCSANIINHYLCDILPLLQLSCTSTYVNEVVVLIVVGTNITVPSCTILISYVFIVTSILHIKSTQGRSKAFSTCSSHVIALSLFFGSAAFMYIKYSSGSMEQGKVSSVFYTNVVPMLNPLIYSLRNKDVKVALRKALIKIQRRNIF
# Method in brief: as §1
# [4] = system: T4, OR8B3
# T4 sequence (whole entry): T3 sequence (whole entry) with H20R, T47I, N94Y, R100Q, M114I, T205I, T208M
# Method in brief: as §1
# [5] = system: T5, OR8B4
# T5 sequence (whole entry): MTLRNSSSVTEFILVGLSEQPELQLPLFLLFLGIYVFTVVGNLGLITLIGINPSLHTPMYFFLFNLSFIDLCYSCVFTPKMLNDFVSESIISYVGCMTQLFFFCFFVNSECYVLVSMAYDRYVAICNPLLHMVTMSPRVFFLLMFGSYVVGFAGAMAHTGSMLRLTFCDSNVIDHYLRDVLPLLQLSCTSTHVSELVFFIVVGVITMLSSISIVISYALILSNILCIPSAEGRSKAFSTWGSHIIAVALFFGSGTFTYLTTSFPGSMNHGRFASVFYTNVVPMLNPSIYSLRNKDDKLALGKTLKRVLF
# Method in brief: as §1
# [6] = system: T6, OR8B4; remark: listed apart in the source
# T6 sequence (whole entry): T5 sequence (whole entry) with E22G, H131Y, F140C, R178C
# Method in brief: as §1
# [7] = target: T7, OR8B8 (Homo sapiens) (UniProt Q15620)
# T7 sequence (whole entry): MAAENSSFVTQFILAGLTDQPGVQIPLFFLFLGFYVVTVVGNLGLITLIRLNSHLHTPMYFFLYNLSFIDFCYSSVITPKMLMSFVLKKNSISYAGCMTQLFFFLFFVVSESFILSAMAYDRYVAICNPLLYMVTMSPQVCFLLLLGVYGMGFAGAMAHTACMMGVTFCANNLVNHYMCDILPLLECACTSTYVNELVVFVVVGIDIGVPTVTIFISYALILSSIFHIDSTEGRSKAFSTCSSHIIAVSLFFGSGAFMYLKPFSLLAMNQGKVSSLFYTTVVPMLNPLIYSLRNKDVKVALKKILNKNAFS
# Method in brief: as §1
# [8] = system: T8, OR8B8
# T8 sequence (whole entry): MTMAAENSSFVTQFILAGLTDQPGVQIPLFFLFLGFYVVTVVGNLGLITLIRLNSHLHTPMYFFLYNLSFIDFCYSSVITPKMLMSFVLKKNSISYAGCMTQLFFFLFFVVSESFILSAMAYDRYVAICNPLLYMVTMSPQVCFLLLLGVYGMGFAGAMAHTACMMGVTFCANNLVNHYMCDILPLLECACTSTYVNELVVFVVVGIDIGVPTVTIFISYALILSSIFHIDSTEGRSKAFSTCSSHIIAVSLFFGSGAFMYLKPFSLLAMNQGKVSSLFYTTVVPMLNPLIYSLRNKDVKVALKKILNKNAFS
# Method in brief: as §1
# [9] = target: T9, OR8D1 (Homo sapiens) (UniProt Q8WZ84)
# T9 sequence (whole entry): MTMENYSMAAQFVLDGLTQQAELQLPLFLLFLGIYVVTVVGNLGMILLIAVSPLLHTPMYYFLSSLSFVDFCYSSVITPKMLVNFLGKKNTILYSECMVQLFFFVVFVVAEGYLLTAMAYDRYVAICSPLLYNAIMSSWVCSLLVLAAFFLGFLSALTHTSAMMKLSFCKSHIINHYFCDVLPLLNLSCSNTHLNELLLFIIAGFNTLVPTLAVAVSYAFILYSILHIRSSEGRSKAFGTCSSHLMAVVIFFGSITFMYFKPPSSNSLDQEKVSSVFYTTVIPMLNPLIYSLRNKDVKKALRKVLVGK
# Method in brief: as §1
# [10] = target: T10, OR8D2 (Homo sapiens) (UniProt Q9GZM6)
# T10 sequence (whole entry): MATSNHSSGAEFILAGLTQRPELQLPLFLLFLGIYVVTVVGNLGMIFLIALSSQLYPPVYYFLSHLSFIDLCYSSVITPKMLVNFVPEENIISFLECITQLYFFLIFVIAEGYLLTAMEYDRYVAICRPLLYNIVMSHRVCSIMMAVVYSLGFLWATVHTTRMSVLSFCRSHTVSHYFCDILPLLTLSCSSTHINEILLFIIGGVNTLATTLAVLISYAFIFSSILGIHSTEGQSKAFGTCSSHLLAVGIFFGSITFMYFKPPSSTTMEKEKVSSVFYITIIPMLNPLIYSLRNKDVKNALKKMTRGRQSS
# Method in brief: as §1
# [11] = system: T11, OR8D4
# T11 sequence (whole entry): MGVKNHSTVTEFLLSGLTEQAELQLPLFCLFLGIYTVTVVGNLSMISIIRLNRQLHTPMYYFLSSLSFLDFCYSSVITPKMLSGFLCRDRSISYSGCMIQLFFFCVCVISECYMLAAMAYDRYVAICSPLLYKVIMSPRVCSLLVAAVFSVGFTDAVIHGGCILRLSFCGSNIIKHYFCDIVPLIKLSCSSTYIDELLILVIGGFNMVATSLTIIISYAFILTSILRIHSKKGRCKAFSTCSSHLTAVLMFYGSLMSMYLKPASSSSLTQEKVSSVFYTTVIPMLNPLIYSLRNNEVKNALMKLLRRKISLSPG
# Method in brief: as §1
# [12] = target: T12, OR8G1 (Homo sapiens) (UniProt Q15617)
# T12 sequence (whole entry): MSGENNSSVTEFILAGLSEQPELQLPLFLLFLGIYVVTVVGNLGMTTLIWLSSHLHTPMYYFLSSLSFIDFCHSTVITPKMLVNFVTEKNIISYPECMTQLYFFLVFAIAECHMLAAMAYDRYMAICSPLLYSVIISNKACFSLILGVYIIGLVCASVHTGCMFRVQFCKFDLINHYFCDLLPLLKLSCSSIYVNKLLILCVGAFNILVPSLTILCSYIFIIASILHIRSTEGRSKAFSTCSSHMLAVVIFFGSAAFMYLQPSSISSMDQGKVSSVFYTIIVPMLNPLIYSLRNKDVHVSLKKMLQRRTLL
# Method in brief: as §1
# [13] = target: T13, OR8G5 (Homo sapiens) (UniProt Q8NG78)
# T13 sequence (whole entry): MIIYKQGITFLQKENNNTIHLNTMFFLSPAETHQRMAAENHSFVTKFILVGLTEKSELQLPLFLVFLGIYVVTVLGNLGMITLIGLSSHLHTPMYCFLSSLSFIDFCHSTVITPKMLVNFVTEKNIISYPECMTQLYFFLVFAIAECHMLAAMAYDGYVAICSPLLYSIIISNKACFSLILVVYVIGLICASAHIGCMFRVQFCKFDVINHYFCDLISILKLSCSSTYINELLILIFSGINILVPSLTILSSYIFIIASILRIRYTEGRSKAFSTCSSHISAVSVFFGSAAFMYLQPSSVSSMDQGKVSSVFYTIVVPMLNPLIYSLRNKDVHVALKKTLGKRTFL
# Method in brief: as §1
# [14] = system: T14, OR8G5
# T14 sequence (whole entry): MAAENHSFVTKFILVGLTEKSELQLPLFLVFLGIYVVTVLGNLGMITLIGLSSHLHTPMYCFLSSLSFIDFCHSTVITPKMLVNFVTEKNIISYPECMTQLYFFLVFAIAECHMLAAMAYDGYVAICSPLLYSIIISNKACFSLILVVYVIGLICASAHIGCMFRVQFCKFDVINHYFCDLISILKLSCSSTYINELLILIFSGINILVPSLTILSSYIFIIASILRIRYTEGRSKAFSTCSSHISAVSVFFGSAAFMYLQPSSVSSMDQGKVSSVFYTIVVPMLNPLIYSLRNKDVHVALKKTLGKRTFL
# Method in brief: as §1
# [15] = target: T15, OR8H1 (Homo sapiens) (UniProt Q8NGG4)
# T15 sequence (whole entry): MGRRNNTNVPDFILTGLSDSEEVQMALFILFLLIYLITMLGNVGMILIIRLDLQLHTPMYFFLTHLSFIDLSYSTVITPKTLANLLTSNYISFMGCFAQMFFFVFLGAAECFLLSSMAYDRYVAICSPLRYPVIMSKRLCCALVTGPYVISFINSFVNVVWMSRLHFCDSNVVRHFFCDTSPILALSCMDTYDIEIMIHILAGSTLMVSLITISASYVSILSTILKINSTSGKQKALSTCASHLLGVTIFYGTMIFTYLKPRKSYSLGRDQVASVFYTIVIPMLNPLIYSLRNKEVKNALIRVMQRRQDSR
# Method in brief: as §1
# [16] = system: T16, OR8H2
# T16 sequence (whole entry): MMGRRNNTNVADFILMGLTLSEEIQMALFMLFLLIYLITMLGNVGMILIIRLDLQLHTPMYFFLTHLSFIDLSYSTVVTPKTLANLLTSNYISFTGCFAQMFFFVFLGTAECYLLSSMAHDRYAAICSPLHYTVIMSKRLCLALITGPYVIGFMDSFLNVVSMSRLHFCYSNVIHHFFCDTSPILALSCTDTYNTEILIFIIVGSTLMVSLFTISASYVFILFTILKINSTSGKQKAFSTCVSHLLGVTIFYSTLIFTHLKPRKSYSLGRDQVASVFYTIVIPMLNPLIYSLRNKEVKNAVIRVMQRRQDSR
# Method in brief: as §1
# 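Also: active if original authors judged signal statistically different from baseline.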
SMILES,odorant receptor agonist call [1],odorant receptor agonist call [2],odorant receptor agonist call [3],odorant receptor agonist call [4],odorant receptor agonist call [5],odorant receptor agonist call [6],odorant receptor agonist call [7],odorant receptor agonist call [8],odorant receptor agonist call [9],odorant receptor agonist call [10],odorant receptor agonist call [11],odorant receptor agonist call [12],odorant receptor agonist call [13],odorant receptor agonist call [14],odorant receptor agonist call [15],odorant receptor agonist call [16]
CC(C)C(=O)O,inactive,active,inactive,inactive,inactive,inactive,inactive,inactive,inactive,inactive,inactive,inactive,inactive,inactive,inactive,active
COc1cc(C)ccc1O,inactive,inactive,inactive,inactive,inactive,inactive,inactive,inactive,inactive,inactive,inactive,inactive,inactive,inactive,inactive,inactive
c1ccc(Oc2ccccc2)cc1,inactive,inactive,inactive,inactive,inactive,inactive,inactive,inactive,inactive,inactive,inactive,inactive,inactive,inactive,inactive,inactive
CCCCCCCOC(C)=O,inactive,inactive,inactive,inactive,inactive,inactive,inactive,inactive,inactive,inactive,inactive,inactive,inactive,inactive,inactive,inactive
CCCCCCCCCC=O,inactive,inactive,inactive,inactive,inactive,inactive,inactive,inactive,inactive,inactive,inactive,inactive,inactive,inactive,inactive,inactive
O=CCc1ccccc1,inactive,active,active,active,inactive,inactive,inactive,inactive,inactive,inactive,inactive,inactive,inactive,inactive,inactive,inactive
CC1=CCC(C(C)(C)O)CC1 (configuration not stated),inactive,inactive,active,inactive,inactive,inactive,inactive,inactive,inactive,inactive,inactive,inactive,inactive,inactive,inactive,inactive
CCCCCCCCOC(C)=O,inactive,inactive,inactive,inactive,inactive,inactive,inactive,inactive,inactive,inactive,inactive,inactive,inactive,inactive,inactive,inactive
CCCCCC(=O)O,inactive,inactive,inactive,inactive,inactive,inactive,inactive,inactive,inactive,inactive,inactive,inactive,inactive,inactive,inactive,inactive
O=C1CCCCCCCCCCCC(=O)OCCO1,inactive,inactive,inactive,inactive,inactive,inactive,inactive,inactive,inactive,inactive,inactive,inactive,inactive,inactive,inactive,inactive
CC(=O)OC1CC2CCC1(C)C2(C)C (configuration not stated),inactive,inactive,inactive,inactive,inactive,inactive,inactive,inactive,inactive,inactive,inactive,inactive,inactive,inactive,inactive,inactive
CC1COCc2cc3c(cc21)C(C)(C)C(C)C3(C)C (configuration not stated),active,active,inactive,inactive,active,inactive,active,inactive,inactive,inactive,inactive,active,inactive,active,active,inactive

# Full records from above. Order of values: odorant receptor agonist call [1]	odorant receptor agonist call [2]	odorant receptor agonist call [3]	odorant receptor agonist call [4]	odorant receptor agonist call [5]	odorant receptor agonist call [6]	odorant receptor agonist call [7]	odorant receptor agonist call [8]	odorant receptor agonist call [9]	odorant receptor agonist call [10]	odorant receptor agonist call [11]	odorant receptor agonist call [12]	odorant receptor agonist call [13]	odorant receptor agonist call [14]	odorant receptor agonist call [15]	odorant receptor agonist call [16]
# `CC(=O)OC1CC2CCC1(C)C2(C)C` (configuration not stated) is entered as inactive	inactive	inactive	inactive	inactive	inactive	inactive	inactive	inactive	inactive	inactive	inactive	inactive	inactive	inactive	inactive
# `O=CCc1ccccc1` is entered as inactive	active	active	active	inactive	inactive	inactive	inactive	inactive	inactive	inactive	inactive	inactive	inactive	inactive	inactive
